Some of the results follow.
Key:
Assay in all cases: log2 fold change, soluble protein after heating vs DMSO (PISA); higher = thermal stabilisation; K562 cells, 10 uM, 30 min; active = over 0.2 and 3.5 SD of the protein, either way, in both replicates (recomputed)
[1] = compound: NC(=O)Nc1cc(-c2cccc(F)c2)sc1C(=O)N[C@H]1CCCNC1
How it was run: (§1)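 For each measurement, 10 μM compound was applied for 30 min to K562 cells at 2×10^6 cells/mL. Aliquots were heated for 3 min across 48°C-58°C, pooled, and extracted in PBS with 0.5% NP-40 at 4°C; the supernatant after 21,000xg for 90 min was soluble protein. This was quantified by TMTpro 16plex LC-MS/MS with channel sums equalised, and thermal stability was reported relative to control samples from duplicates, on a log2 fold-change scale.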

Sequences of proteins named here, by UniProt entry; tags and fusion partners are left off. A change or cut given only in a name is not applied to a line headed by its entry.
UniProt Q8NBW4: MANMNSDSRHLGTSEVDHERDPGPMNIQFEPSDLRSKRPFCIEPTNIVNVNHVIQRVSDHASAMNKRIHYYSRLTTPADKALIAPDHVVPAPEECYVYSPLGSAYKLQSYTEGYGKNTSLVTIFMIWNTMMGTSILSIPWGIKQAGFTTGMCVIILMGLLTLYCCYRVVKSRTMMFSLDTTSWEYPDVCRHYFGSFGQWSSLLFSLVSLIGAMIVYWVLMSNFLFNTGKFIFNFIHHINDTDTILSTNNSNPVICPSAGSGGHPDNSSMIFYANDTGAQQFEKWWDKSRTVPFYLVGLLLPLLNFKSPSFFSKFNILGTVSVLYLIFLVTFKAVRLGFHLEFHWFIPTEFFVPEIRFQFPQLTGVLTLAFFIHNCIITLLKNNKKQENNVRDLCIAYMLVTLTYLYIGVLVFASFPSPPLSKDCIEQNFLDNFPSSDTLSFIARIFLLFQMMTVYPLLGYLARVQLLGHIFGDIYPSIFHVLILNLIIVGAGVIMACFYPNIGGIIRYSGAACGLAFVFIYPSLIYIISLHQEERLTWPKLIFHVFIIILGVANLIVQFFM
UniProt Q9UBX3: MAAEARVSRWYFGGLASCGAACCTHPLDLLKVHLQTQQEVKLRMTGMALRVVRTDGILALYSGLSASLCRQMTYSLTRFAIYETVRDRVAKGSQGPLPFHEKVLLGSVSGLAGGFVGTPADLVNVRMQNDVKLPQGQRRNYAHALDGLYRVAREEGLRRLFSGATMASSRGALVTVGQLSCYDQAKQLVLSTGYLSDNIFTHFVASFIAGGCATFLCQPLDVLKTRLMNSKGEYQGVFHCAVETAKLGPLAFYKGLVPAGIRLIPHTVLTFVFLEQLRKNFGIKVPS
UniProt Q9BQT8: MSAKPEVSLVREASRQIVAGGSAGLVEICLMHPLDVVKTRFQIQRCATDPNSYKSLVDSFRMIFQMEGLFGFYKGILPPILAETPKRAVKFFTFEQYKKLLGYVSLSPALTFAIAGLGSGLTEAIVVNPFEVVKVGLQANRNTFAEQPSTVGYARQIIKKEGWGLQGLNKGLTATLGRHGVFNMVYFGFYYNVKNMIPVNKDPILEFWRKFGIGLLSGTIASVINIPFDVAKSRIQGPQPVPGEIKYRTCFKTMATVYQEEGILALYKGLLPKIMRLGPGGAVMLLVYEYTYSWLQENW
UniProt P11169: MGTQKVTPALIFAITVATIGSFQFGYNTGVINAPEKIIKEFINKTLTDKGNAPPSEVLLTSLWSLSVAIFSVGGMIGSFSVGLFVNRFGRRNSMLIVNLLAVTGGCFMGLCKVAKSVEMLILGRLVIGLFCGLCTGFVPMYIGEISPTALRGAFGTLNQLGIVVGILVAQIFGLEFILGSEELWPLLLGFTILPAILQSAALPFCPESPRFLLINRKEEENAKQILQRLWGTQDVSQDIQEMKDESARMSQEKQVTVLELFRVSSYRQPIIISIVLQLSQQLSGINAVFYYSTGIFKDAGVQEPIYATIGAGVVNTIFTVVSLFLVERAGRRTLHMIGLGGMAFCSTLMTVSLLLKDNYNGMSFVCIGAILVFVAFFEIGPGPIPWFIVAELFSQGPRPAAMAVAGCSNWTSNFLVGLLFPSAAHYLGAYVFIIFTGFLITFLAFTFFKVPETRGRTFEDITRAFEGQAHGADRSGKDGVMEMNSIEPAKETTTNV
UniProt Q13433: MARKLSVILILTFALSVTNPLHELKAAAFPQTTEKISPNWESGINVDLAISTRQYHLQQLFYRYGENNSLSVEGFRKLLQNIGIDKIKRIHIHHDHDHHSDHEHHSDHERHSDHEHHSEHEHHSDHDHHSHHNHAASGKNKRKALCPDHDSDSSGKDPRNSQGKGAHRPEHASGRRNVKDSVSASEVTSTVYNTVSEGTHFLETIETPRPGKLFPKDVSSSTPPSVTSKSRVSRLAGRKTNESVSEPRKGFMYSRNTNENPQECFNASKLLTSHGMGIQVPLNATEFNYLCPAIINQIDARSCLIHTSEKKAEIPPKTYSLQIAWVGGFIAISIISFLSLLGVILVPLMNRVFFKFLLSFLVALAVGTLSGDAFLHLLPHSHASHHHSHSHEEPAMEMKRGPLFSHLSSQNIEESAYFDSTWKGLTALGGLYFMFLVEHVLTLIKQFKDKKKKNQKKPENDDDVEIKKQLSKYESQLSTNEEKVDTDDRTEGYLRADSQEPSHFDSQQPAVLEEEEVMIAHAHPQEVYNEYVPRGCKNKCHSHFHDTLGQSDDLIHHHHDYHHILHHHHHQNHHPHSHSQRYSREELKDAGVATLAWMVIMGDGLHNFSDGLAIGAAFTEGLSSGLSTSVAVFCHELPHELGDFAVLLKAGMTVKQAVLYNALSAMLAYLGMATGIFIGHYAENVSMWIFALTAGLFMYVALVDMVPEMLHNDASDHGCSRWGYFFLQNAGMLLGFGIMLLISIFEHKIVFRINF
UniProt P53794: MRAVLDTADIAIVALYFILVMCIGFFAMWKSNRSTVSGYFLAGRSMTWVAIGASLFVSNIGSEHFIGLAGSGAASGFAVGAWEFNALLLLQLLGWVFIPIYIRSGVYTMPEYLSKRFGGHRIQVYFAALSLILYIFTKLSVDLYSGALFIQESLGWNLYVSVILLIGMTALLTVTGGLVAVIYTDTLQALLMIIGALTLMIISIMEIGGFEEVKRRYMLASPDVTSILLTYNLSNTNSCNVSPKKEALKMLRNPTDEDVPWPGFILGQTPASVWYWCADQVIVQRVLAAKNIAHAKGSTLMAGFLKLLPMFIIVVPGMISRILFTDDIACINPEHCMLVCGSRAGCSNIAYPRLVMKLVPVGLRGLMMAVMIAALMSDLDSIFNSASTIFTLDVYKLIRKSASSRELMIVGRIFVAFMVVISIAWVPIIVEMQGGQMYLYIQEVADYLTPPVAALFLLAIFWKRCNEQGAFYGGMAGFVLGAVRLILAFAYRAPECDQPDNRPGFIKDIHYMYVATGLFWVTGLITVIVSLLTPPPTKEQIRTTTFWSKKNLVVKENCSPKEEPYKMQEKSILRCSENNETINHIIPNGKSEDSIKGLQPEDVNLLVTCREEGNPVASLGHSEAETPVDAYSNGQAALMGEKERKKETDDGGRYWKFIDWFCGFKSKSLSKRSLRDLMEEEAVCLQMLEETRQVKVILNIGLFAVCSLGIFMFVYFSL
UniProt Q8IXU6: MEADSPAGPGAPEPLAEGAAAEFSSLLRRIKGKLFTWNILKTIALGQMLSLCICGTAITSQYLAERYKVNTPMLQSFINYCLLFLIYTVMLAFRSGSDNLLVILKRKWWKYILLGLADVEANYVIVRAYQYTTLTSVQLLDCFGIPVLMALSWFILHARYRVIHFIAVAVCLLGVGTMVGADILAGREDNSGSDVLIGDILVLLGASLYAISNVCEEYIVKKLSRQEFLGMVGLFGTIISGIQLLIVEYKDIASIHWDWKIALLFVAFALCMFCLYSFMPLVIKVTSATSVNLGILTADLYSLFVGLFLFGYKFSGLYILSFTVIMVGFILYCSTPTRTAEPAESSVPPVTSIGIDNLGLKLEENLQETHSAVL
UniProt Q8WUX1, whole entry, looked up: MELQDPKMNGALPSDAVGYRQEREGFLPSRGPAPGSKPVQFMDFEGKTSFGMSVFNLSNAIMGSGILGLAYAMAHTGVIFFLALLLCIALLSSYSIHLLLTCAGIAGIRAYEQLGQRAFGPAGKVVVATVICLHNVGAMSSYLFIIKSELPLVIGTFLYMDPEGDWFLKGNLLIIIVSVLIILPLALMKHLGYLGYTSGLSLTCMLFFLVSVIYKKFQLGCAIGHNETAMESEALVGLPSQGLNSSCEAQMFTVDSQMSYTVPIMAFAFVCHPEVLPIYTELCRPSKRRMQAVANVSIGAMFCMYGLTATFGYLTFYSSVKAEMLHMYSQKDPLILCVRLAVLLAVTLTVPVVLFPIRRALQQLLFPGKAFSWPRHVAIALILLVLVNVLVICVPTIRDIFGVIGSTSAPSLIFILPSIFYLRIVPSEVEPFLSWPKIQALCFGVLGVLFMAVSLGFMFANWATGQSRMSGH
UniProt Q01650: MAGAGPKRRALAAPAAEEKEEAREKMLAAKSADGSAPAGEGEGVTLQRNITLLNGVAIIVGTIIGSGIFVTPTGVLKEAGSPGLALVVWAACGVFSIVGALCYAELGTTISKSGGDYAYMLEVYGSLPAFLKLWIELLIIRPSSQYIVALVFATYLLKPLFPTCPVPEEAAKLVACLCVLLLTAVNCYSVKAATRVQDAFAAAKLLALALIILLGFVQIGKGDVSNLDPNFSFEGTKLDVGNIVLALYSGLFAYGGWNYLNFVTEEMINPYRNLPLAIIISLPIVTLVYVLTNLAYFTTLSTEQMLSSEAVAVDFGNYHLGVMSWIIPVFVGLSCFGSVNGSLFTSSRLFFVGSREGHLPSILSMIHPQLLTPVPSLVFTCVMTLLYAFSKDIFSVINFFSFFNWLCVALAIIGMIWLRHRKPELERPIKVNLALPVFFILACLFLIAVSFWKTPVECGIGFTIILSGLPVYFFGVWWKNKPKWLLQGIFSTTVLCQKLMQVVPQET
UniProt Q96AG3: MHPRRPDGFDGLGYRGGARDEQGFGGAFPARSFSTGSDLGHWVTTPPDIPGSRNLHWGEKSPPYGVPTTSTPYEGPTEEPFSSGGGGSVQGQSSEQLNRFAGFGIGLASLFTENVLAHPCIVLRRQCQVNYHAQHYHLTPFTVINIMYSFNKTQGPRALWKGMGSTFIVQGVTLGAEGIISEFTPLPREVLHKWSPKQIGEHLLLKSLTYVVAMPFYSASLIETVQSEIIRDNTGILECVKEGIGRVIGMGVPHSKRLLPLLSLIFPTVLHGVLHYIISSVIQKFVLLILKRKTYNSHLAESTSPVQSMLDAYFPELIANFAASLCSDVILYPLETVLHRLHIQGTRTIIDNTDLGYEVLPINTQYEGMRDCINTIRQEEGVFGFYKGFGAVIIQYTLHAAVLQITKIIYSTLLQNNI
UniProt Q6NXT4: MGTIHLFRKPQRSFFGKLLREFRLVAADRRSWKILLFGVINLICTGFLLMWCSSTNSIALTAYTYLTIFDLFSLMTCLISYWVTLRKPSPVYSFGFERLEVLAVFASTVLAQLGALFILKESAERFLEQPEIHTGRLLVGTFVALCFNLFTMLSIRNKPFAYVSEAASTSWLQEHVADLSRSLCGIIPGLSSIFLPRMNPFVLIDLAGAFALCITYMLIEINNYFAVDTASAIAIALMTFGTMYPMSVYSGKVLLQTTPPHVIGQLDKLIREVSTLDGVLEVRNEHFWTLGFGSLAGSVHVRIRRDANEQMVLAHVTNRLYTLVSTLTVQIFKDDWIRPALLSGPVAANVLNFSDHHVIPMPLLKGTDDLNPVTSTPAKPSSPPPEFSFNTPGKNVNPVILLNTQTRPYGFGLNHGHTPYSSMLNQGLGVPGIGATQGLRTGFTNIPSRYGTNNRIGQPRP
UniProt Q9UHW9: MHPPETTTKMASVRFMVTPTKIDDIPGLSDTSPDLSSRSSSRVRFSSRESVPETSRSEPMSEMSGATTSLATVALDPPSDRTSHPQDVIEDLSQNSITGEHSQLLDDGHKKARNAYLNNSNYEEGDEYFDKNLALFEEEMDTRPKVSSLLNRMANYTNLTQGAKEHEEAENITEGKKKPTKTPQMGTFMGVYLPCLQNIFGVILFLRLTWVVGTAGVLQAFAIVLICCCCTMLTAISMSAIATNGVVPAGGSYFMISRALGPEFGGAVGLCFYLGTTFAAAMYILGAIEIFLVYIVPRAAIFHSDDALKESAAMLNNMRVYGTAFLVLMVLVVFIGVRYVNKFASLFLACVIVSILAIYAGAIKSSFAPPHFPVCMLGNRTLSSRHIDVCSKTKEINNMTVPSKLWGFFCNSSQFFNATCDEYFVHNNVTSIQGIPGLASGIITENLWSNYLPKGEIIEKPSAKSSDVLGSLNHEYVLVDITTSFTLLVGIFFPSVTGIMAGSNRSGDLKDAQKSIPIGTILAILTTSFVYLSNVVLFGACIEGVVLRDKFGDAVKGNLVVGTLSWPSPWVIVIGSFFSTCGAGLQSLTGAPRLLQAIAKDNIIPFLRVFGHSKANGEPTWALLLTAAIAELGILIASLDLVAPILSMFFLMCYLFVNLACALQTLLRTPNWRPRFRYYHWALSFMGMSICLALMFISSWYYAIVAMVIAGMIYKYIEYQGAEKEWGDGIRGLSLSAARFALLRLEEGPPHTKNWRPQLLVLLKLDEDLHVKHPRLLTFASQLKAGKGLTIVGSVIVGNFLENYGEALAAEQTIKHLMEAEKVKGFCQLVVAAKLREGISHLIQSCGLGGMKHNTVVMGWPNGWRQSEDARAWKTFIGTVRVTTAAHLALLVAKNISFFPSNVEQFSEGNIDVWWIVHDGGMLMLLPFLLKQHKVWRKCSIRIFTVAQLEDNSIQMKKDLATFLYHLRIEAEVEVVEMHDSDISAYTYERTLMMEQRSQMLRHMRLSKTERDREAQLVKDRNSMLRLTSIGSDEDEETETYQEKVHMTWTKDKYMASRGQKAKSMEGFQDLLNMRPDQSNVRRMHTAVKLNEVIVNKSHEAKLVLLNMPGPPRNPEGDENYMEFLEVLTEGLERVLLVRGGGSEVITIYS

[2] = compound: NC(=O)c1cnc(N[C@@H]2CCCC[C@@H]2N)nc1Nc1cccc(-n2nccn2)c1
How it was run: as §1

[3] = compound: NC1(c2ccc(-c3nc4ccn5c(=O)[nH]nc5c4cc3-c3ccccc3)cc2)CCC1
How it was run: as §1

[4] = compound: NCC(=O)Nc1ccc(-n2nc(C(F)(F)F)cc2-c2ccc3c(ccc4ccccc43)c2)cc1
How it was run: as §1

entinostat = compound: Nc1ccccc1NC(=O)c1ccc(CNC(=O)OCc2cccnc2)cc1 [entinostat]
How it was run: as §1

vorinostat = compound: O=C(CCCCCCC(=O)Nc1ccccc1)NO [vorinostat]
How it was run: as §1

citarinostat = compound: O=C(CCCCCCNC(=O)c1cnc(N(c2ccccc2)c2ccccc2Cl)nc1)NO [citarinostat]
How it was run: as §1

silmitasertib = compound: O=C(O)c1ccc2c(c1)nc(Nc1cccc(Cl)c1)c1ccncc12 [silmitasertib]
How it was run: as §1

[5] = compound: O=C1NC(=O)C(c2cnc3ccccn23)=C1c1cn2c3c(cc(F)cc13)CN(C(=O)N1CCCCC1)CC2
How it was run: as §1

[6] = compound: c1cc(OCCN2CCCCC2)cc(-c2n[nH]c3ccc(-c4nnc[nH]4)cc23)c1
How it was run: as §1

entospletinib = compound: c1cn2cc(-c3ccc4cn[nH]c4c3)nc(Nc3ccc(N4CCOCC4)cc3)c2n1 [entospletinib]
How it was run: as §1

Measured: log2 fold change

SLC38A9 (UniProt Q8NBW4)
inactive: [1] -0.129 | [2] 0.009 | [3] -0.113 | [4] -0.025 | entinostat 0.034 | vorinostat 0.007 | citarinostat 0.004 | silmitasertib 0.035 | [5] -0.044 | [6] -0.043

SLC25A36 (UniProt Q96CQ1)
inactive: [1] 0.131 | [2] 0.035 | [3] 0.015 | [4] -0.123 | entinostat 0.036 | vorinostat 0.003 | citarinostat 0.063 | silmitasertib 0.106 | [5] 0.027 | [6] 0.028

SLC20A2 (UniProt Q08357)
inactive: [1] -0.032 | [2] 0.002 | [3] -0.03 | [4] 0.047 | entinostat -0.061 | vorinostat -0.083 | citarinostat -0.033 | silmitasertib 0 | [5] -0.075 | [6] -0.121 | entospletinib 0.031

SLC25A6 (UniProt P12236)
inactive: [1] -0.004 | [2] -0.025 | [3] 0.016 | [4] -0.006 | entinostat -0.017 | vorinostat -0.004 | citarinostat 0.011 | silmitasertib 0.005 | [5] -0.021 | [6] -0.036 | entospletinib -0.002

SLC27A4 (UniProt Q6P1M0)
inactive: [1] -0.086 | [2] -0.043 | [3] -0.034 | [4] 0.016 | entinostat -0.024 | vorinostat 0 | citarinostat 0.043 | silmitasertib 0.022 | [5] -0.073 | [6] -0.1

SLC25A10 isoform 2 (UniProt Q9UBX3)
inactive: [1] 0.039 | [2] 0.053 | [3] 0.012 | [4] 0.012 | entinostat -0.015 | vorinostat 0.01 | citarinostat 0.019 | silmitasertib 0.044 | [5] 0.145 | [6] -0.009 | entospletinib 0.007

SLC5A6 (UniProt Q9Y289)
inactive: [1] -0.093 | [2] 0.082 | [3] 0.053 | [4] 0.013 | entinostat -0.004 | vorinostat -0.008 | citarinostat -0.058 | silmitasertib -0.104 | [5] 0.036 | [6] -0.053 | entospletinib -0.048

SLC25A21 (UniProt Q9BQT8)
inactive: [1] -0.028 | [2] -0.042 | [3] -0.025 | [4] -0.083 | entinostat -0.032 | vorinostat -0.038 | citarinostat -0.015 | silmitasertib 0.033 | [5] -0.019 | [6] -0.045 | entospletinib 0.024

SLC2A3 (UniProt P11169)
inactive: [1] -0.024 | [2] 0.048 | [3] 0.072 | [4] 0.015 | entinostat -0.004 | vorinostat 0.015 | citarinostat 0.035 | silmitasertib -0.001 | [5] 0.054 | [6] -0.063 | entospletinib -0.052

SLC25A38 (UniProt Q96DW6)
inactive: [1] 0.035 | [2] -0.068 | [3] -0.21 | [4] 0.06 | entinostat -0.049 | vorinostat -0.096 | citarinostat 0.02 | silmitasertib 0.069 | [5] -0.022 | [6] -0.028

SLC25A12 (UniProt O75746)
inactive: [1] -0.023 | [2] 0 | [3] 0.001 | [4] -0.022 | entinostat -0.012 | vorinostat -0.008 | citarinostat -0.011 | silmitasertib 0.005 | [5] -0.013 | [6] 0.037 | entospletinib -0.03

SLC39A6 (UniProt Q13433)
inactive: [1] -0.131 | [2] 0.03 | [3] 0.124 | [4] -0.029 | entinostat -0.118 | vorinostat 0.027 | citarinostat 0.019 | silmitasertib -0.03 | [5] -0.033 | [6] -0.077 | entospletinib -0.095

SLC25A11 (UniProt Q02978)
inactive: [1] 0.021 | [2] 0.02 | [3] 0.016 | [4] -0.001 | entinostat -0.002 | vorinostat -0.017 | citarinostat 0.028 | silmitasertib 0.038 | [5] -0.028 | [6] -0.038 | entospletinib 0.018

SLC5A3 (UniProt P53794)
inactive: [1] -0.061 | [2] 0.088 | [3] 0.027 | [4] 0.04 | entinostat -0.028 | vorinostat -0.09 | citarinostat 0.013 | silmitasertib 0.026 | [5] 0.013 | [6] 0.002 | entospletinib 0.031

SLC39A10 (UniProt Q9ULF5)
inactive: [1] -0.087 | [2] 0.046 | [3] 0.113 | [4] 0.022 | entinostat -0.065 | vorinostat -0.005 | citarinostat -0.021 | silmitasertib -0.058 | [5] -0.004 | [6] -0.054 | entospletinib 0.015

SLC25A13 isoform 2 (UniProt Q9UJS0)
inactive: [1] -0.008 | [2] -0.048 | [3] -0.024 | [4] -0.012 | entinostat 0.001 | vorinostat -0.011 | citarinostat 0.033 | silmitasertib -0.027 | [5] -0.015 | [6] -0.03 | entospletinib 0.029

SLC35F2 (UniProt Q8IXU6)
inactive: [1] -0.037 | [2] 0.017 | [3] -0.018 | [4] 0.13 | entinostat 0.015 | vorinostat 0.025 | citarinostat 0.098 | silmitasertib -0.001 | [5] 0.04 | [6] -0.112 | entospletinib 0.025

2 neighbouring records already listed:
SLC39A10 (UniProt Q9ULF5)
inactive: [1] -0.087 | [2] 0.046 | [3] 0.113 | [4] 0.022 | entinostat -0.065 | vorinostat -0.005 | citarinostat -0.021 | silmitasertib -0.058 | [5] -0.004 | [6] -0.054 | entospletinib 0.015

SLC25A13 isoform 2 (UniProt Q9UJS0)
inactive: [1] -0.008 | [2] -0.048 | [3] -0.024 | [4] -0.012 | entinostat 0.001 | vorinostat -0.011 | citarinostat 0.033 | silmitasertib -0.027 | [5] -0.015 | [6] -0.03 | entospletinib 0.029

More results.

SLC38A5 (UniProt Q8WUX1)
inactive: [1] -0.1 | [2] 0.004 | [3] 0.125 | [4] 0.015 | entinostat -0.026 | vorinostat 0.044 | citarinostat 0.023 | silmitasertib -0.009 | [5] 0.028 | [6] -0.055 | entospletinib 0.014

SLC7A5 (UniProt Q01650)
inactive: [1] -0.012 | [2] 0.019 | [3] 0.144 | [4] 0.042 | entinostat 0.03 | vorinostat -0.08 | citarinostat -0.018 | silmitasertib -0.014 | [5] -0.007 | [6] -0.094 | entospletinib -0.006

SLC25A46 (UniProt Q96AG3)
inactive: [1] -0.023 | [2] -0.032 | [3] 0.023 | [4] -0.014 | entinostat -0.074 | vorinostat 0.122 | citarinostat -0.03 | silmitasertib 0.018 | [5] -0.073 | [6] -0.012 | entospletinib 0.006

SLC35A4 (UniProt L0R6Q1)
inactive: [1] -0.006 | [2] -0.07 | [3] -0.027 | [4] 0.021 | entinostat 0.09 | vorinostat -0.082 | citarinostat 0.021 | silmitasertib 0.064 | [5] -0.166 | [6] -0.038 | entospletinib 0.079

SLC25A20 (UniProt O43772)
inactive: [1] -0.033 | [2] -0.029 | [3] -0.008 | [4] -0.01 | entinostat -0.032 | vorinostat -0.026 | citarinostat 0.037 | silmitasertib 0.03 | [5] 0.001 | [6] -0.008 | entospletinib -0.033

SLC30A9 (UniProt Q6PML9)
inactive: [1] -0.125 | [2] 0.002 | [3] -0.086 | [4] -0.048 | entinostat 0.021 | vorinostat 0.004 | citarinostat 0.038 | silmitasertib 0.049 | [5] -0.061 | [6] -0.088 | entospletinib -0.029

SLC30A6 isoform 2 (UniProt Q6NXT4)
inactive: [1] -0.008 | [2] -0.052 | [3] -0.141 | [4] -0.159 | entinostat 0.062 | vorinostat 0.14 | citarinostat 0.012 | silmitasertib -0.027 | [5] -0.013 | [6] -0.011 | entospletinib -0.046

SLC3A2 isoform 3 (UniProt P08195)
inactive: [1] 0.015 | [2] 0.097 | [3] 0.086 | [4] 0.09 | entinostat -0.021 | vorinostat 0.003 | citarinostat 0.038 | silmitasertib -0.076 | [5] -0.025 | [6] -0.017 | entospletinib 0.014

SLC12A6 isoform 2 (UniProt Q9UHW9)
inactive: [1] -0.025 | [2] 0.034 | [3] -0.087 | [4] -0.017 | entinostat 0.006 | vorinostat 0.063 | citarinostat 0.053 | silmitasertib -0.011 | [5] 0.011 | [6] -0.08 | entospletinib 0.013

SLC38A10 (UniProt Q9HBR0)
inactive: [1] 0.019 | [2] -0.014 | [3] 0.023 | [4] 0.027 | entinostat -0.033 | vorinostat 0.029 | citarinostat 0.007 | silmitasertib 0.006 | [5] -0.031 | [6] -0.02 | entospletinib -0.03
